The list does not hold the whole screen: it is rich in T/C values a quarter to a half above the control, in often repeated tests (any T/C) and in doses without a T/C. Other doses and runs of a compound stand elsewhere. T/C is the treated group as % of the vehicle group. Some doses have a count of surviving animals in place of a T/C: the source files T/C as zero there, which appears to mark a toxic dose or a test without result, not a measured value. Some doses without a T/C left all or most animals alive at the check, yet need not have been tolerated: survival well below the control is almost never listed, so the zero probably covers shortened survival too. Counts of survivors are from the toxicity check (mostly the fifth day) where no day follows; animals may have died later. Schedule codes are those of the source, taken here to give the interval after Q, in days (D) or hours (H), and the number of doses after X. For survival time, this PubChem deposit counts one and a half times the control or more as active, and values a quarter to a half above the control carry no call in these data; other NCI protocols may use other cut-offs. Some doses were run more than once; their values stand side by side, smallest first.

Results on 25 compounds are retold here after PubChem BioAssay AID248 (DTP/NCI, 2004).

The assay deals with L1210 leukemia ip in BDF1 mice, survival T/C. The experiment in a line: NCI In Vivo Anticancer Drug Screen. Data for tumor model L1210 Leukemia (intraperitoneal) in B6D2F1 (BDF1) mice. As to conditions: T/C endpoint: mean survival time, higher T/C = longer survival.
Where [1] appears, read: dose: 300.0 mg/kg/injection, schedule: Q01DX001 (ip), vehicle: saline.
Where [2] appears, read: dose: 200.0 mg/kg/injection, schedule: Q01DX001 (ip), vehicle: saline with Tween-80.
Where [3] appears, read: dose: 400.0 mg/kg/injection, schedule: Q01DX001 (ip), vehicle: saline with Tween-80.
Where [4] appears, read: dose: 400.0 mg/kg/injection, schedule: Q01DX009 (ip), vehicle: Klucel (hydroxypropylcellulose) (HPC).
Where [5] appears, read: dose: 100.0 mg/kg/injection, schedule: Q04DX003 (ip), vehicle: Klucel (hydroxypropylcellulose) (HPC).
Setting [6] is: dose: 200.0 mg/kg/injection, schedule: Q04DX003 (ip), vehicle: Klucel (hydroxypropylcellulose) (HPC).
[7] abbreviates: dose: 400.0 mg/kg/injection, schedule: Q04DX003 (ip), vehicle: Klucel (hydroxypropylcellulose) (HPC).
Where [8] appears, read: dose: 400.0 mg/kg/injection, schedule: Q01DX001 (ip), vehicle: Klucel (hydroxypropylcellulose) (HPC).
Setting [9] is: dose: 400.0 mg/kg/injection, schedule: Q04DX003 (ip), vehicle: saline.
[10] abbreviates: dose: 100.0 mg/kg/injection, schedule: Q01DX001 (ip), vehicle: saline.
The mark [11] stands for this setting: dose: 200.0 mg/kg/injection, schedule: Q01DX001 (ip), vehicle: saline.
Setting [12] is: dose: 400.0 mg/kg/injection, schedule: Q01DX001 (ip), vehicle: saline.
Setting [13] is: dose: 200.0 mg/kg/injection, schedule: Q04DX002 (ip), vehicle: Klucel (hydroxypropylcellulose) (HPC).
The mark [14] stands for this setting: dose: 200.0 mg/kg/injection, schedule: Q01DX009 (ip), vehicle: saline with Tween-80.
The mark [15] stands for this setting: dose: 400.0 mg/kg/injection, schedule: Q04DX003 (ip), vehicle: saline with Tween-80.

On to `CCC(CC)C[N+](C)(C)C`, for which, under setting [1], the survivor count was 1 of 6.
Turning to `CN1CCC(C#N)(c2ccccn2)CC1`, the survivor count (dose: 100.0 mg/kg/injection, schedule: Q01DX001 (ip), vehicle: saline with Tween-80) is listed as 0 of 6; the survivor count under setting [2] was 0 of 6; the survivor count under setting [3] is 0 of 6.
For `CCc1ccc(NC(=O)c2ccco2)cc1`, the survivor count reads like this: (dose: 100.0 mg/kg/injection, schedule: Q01DX009 (ip), vehicle: Klucel (hydroxypropylcellulose) (HPC)) 6 of 6; (dose: 200.0 mg/kg/injection, schedule: Q01DX009 (ip), vehicle: Klucel (hydroxypropylcellulose) (HPC)) 0 of 6; under setting [4], 0 of 6.
Turning to `CNC(=O)OCC1=CC(=O)C(OC)=CC1=O`, the survivor count (dose: 1.5 mg/kg/injection, schedule: Q01DX009 (ip), vehicle: Klucel (hydroxypropylcellulose) (HPC)) is 6 of 6; the survivor count (dose: 6.0 mg/kg/injection, schedule: Q01DX009 (ip), vehicle: Klucel (hydroxypropylcellulose) (HPC)) is given as 5 of 6; the survivor count (dose: 12.0 mg/kg/injection, schedule: Q01DX009 (ip), vehicle: Klucel (hydroxypropylcellulose) (HPC)) is 6 of 6; the survivor count (dose: 50.0 mg/kg/injection, schedule: Q04DX003 (ip), vehicle: Klucel (hydroxypropylcellulose) (HPC)) is reported as 0 of 6; the survivor count under setting [5] is recorded as 1 of 6; the survivor count under setting [6] is listed as 0 of 6. Further, the survivor count under setting [7] is reported as 0 of 6.
Take `c1cc[c]([Pb]([S]c2ncnc3c2nc[n]3[Pb]([c]2ccccc2)([c]2ccccc2)[c]2ccccc2)([c]2ccccc2)[c]2ccccc2)cc1.c1cc[c]([Pb]([S]c2ncnc3nc[nH]c23)([c]2ccccc2)[c]2ccccc2)cc1`: the survivor count (dose: 20.0 mg/kg/injection, schedule: Q01DX001 (ip), vehicle: other) is reported as 1 of 6; the survivor count (dose: 40.0 mg/kg/injection, schedule: Q01DX001 (ip), vehicle: other) is given as 0 of 6; the survivor count (dose: 80.0 mg/kg/injection, schedule: Q01DX001 (ip), vehicle: other) is 0 of 6; the survivor count (dose: 100.0 mg/kg/injection, schedule: Q01DX001 (ip), vehicle: other) is reported as 2 of 6; the survivor count (dose: 200.0 mg/kg/injection, schedule: Q01DX001 (ip), vehicle: other) is on record as 0 of 6; the survivor count (dose: 400.0 mg/kg/injection, schedule: Q01DX001 (ip), vehicle: other) is given as 0 of 6.
In the case of `CC(=O)Nc1ccc(-c2ccccc2)cc1`, the survivor count reads like this: under setting [8], 1 of 6; (dose: 400.0 mg/kg/injection, schedule: Q01DX009 (ip), vehicle: saline with Tween-80) 0 of 6.
On to `[Cl][Pt+2][Cl].[NH-]CCN1CC1`, for which the T/C (dose: 200.0 mg/kg/injection, schedule: Q04DX003 (ip), vehicle: saline) is 128 and 130 % of control; the T/C under setting [9] was 130 and 136 % of control. Also, where the note is “dose: 600.0 mg/kg/injection, schedule: Q04DX003 (ip), vehicle: saline”, the survivor count is 1 of 6.
For `CCN=C(N)C(C)SS(=O)(=O)O` (centres undefined), the survivor count (dose: 400.0 mg/kg/injection, schedule: Q04DX002 (ip), vehicle: saline) is listed as 0 of 3.
As to `c1cc(-c2ncc[nH]2)ccn1`, the survivor count under setting [2] is given as 1 of 3 and the survivor count under setting [3] was 0 of 3.
As to `Nc1cnnc(N)c1Cl`, the survivor count is recorded as 0 of 4 (dose: 80.0 mg/kg/injection, schedule: Q01DX001 (ip), vehicle: saline); 0 of 6 under setting [10]; 0 of 6 under setting [11]; 0 of 6 under setting [12].
Turning to `CC(=O)OC(C)(/N=N/C(C)(OC(C)=O)c1ccc(Cl)cc1)c1ccc(Cl)cc1` (centres undefined), the survivor count is 6 of 6 (dose: 200.0 mg/kg/injection, schedule: Q01DX001 (ip), vehicle: gum acacia) and 6 of 6 (dose: 400.0 mg/kg/injection, schedule: Q01DX001 (ip), vehicle: gum acacia).
Regarding `CN1CCC2CCC(C1)N2C` (centres undefined), the survivor count under setting [1] was 1 of 6.
In the case of `O=NO.O=N[O-].O=N[O-].[Co+3].[NH-]CC[N-]CCO.[NH-]CC[N-]CCO`, the survivor count is on record as 4 of 6 (dose: 100.0 mg/kg/injection, schedule: Q01DX009 (ip), vehicle: water); 0 of 6 (dose: 200.0 mg/kg/injection, schedule: Q01DX009 (ip), vehicle: water); 2 of 6 (dose: 200.0 mg/kg/injection, schedule: Q04DX003 (ip), vehicle: water); 0 of 6 (dose: 400.0 mg/kg/injection, schedule: Q04DX003 (ip), vehicle: water).
In the case of `NC(CS)=NCC1C2CC3CC(C2)CC1C3` (centres undefined), the survivor count by setting is: (dose: 100.0 mg/kg/injection, schedule: Q04DX002 (ip), vehicle: Klucel (hydroxypropylcellulose) (HPC)) 0 of 3; under setting [13], 0 of 3; (dose: 400.0 mg/kg/injection, schedule: Q04DX002 (ip), vehicle: Klucel (hydroxypropylcellulose) (HPC)) 0 of 3.
Regarding `O=C1SC2(CCCCC2)SC1=O`, the survivor count runs as follows: under setting [14], 0 of 6; under setting [15], 3 of 6.
For the compound `Cc1c(C)c(C)c([N+](=O)[O-])c([N+](=O)[O-])c1C`, the survivor count (dose: 400.0 mg/kg/injection, schedule: Q04DX002 (ip), vehicle: saline with Tween-80) was 3 of 3.
Consider `O=C(Nc1ccccc1C(F)(F)F)c1ccc(Cl)c(Cl)c1`, for which the survivor count under setting [4] was 2 of 6.
Turning to `CCCCCCCCCC(=O)CCCCCCC`, the survivor count (dose: 200.0 mg/kg/injection, schedule: Q01DX009 (ip), vehicle: other) is on record as 6 of 6.
Regarding `COc1ccc(OC(=O)Nc2ccccc2C)cc1`, under setting [13], the T/C was 134 % of control.
With `CCOC(=O)C(C#N)=C(C)C`, the survivor count is reported as 2 of 6 (dose: 150.0 mg/kg/injection, schedule: Q01DX001 (ip), vehicle: other); 1 of 4 under setting [11]; 0 of 6 (dose: 300.0 mg/kg/injection, schedule: Q01DX001 (ip), vehicle: other); 0 of 4 under setting [12]; 0 of 3 under setting [9].
For the compound `O=C1NC(C2CC3C=CC2C3)Nc2ccccc21` (centres undefined), the survivor count is, setting by setting: under setting [5], 2 of 6; under setting [6], 0 of 6; under setting [7], 0 of 6.
Turning to `Nc1ncnc(Nc2ccccc2[N+](=O)[O-])c1[N+](=O)[O-]`, the survivor count (dose: 100.0 mg/kg/injection, schedule: Q01DX001 (ip), vehicle: Klucel (hydroxypropylcellulose) (HPC)) is listed as 3 of 6; the survivor count (dose: 200.0 mg/kg/injection, schedule: Q01DX001 (ip), vehicle: Klucel (hydroxypropylcellulose) (HPC)) is reported as 1 of 6; the survivor count under setting [8] is 0 of 6.
In the case of `COc1ccc2c(c1)c(C)cc[n+]2C`, the survivor count runs as follows: (dose: 75.0 mg/kg/injection, schedule: Q01DX009 (ip), vehicle: saline) 0 of 6; under setting [10], 1 of 7; (dose: 115.0 mg/kg/injection, schedule: Q01DX009 (ip), vehicle: saline) 0 of 6; (dose: 170.0 mg/kg/injection, schedule: Q01DX009 (ip), vehicle: saline) 0 of 6; under setting [11], 0 of 7; under setting [12], 0 of 7.
For `CCN(CC)CC#CCN(CC)CC`, the survivor count reads like this: under setting [14], 2 of 6; under setting [15], 0 of 6.
As to `NC(CNC(=O)OCc1ccccc1)=NCC(=O)O`, the survivor count reads like this: (dose: 200.0 mg/kg/injection, schedule: Q04DX003 (ip), vehicle: saline with Tween-80) 3 of 6; under setting [15], 1 of 6.
